Data taken from the supplement of paper PMC4604168 (melanoma cell lines).
This is one part of the list. Many values rest on one well or one pass, so single values are uncertain.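 Cells were imaged in 1,536-well plates, and nuclei stained with an antibody against cleaved PARP were counted against all DNA-stained nuclei to give the apoptosis fraction. Screening doses were chosen to leave most cells alive, and resting and induced cleaved-PARP levels differ strongly between cell lines.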

Experiments:
Experiment in all cases: cleaved PARP positive nuclei fraction relative to DMSO control; melanoma cells; higher = more apoptosis
Settings in all cases: library dose: low library concentration; 72 h
WM115 = test system: WM115
WM1716 = test system: WM1716
WM1745 = test system: WM1745
WM3526 = test system: WM3526
WM3619 = test system: WM3619
WM451Lu = test system: WM451Lu

SMILES	cleaved PARP positive nuclei fraction (WM115) [%]	cleaved PARP positive nuclei fraction (WM1716) [%]	cleaved PARP positive nuclei fraction (WM1745) [%]	cleaved PARP positive nuclei fraction (WM3526) [%]	cleaved PARP positive nuclei fraction (WM3619) [%]	cleaved PARP positive nuclei fraction (WM451Lu) [%]
Cn1cc(C2=C(c3cn(C4CCN(Cc5ccccn5)CC4)c4ccccc34)C(=O)NC2=O)c2ccccc21 [Enzastaurin] + C=CCNC1=C2C[C@@H](C)C[C@H](OC)[C@H](O)[C@@H](C)/C=C(\C)[C@H](OC(N)=O)[C@@H](OC)/C=C\C=C(/C)C(=O)NC(=CC1=O)C2=O [Tanespimycin] (first compound 0.8 µM, partner dose 0.002 µM)	58	68.9	101	35.9	119	26.6
C=CCNC1=C2C[C@@H](C)C[C@H](OC)[C@H](O)[C@@H](C)/C=C(\C)[C@H](OC(N)=O)[C@@H](OC)/C=C\C=C(/C)C(=O)NC(=CC1=O)C2=O [Tanespimycin] + O=C(Oc1ccc([N+](=O)[O-])cc1)N1CCC(C(O)(c2ccc3c(c2)OCO3)c2ccc3c(c2)OCO3)CC1 [JZL184] (first compound 0.002 µM, partner dose 1 µM)	57.5	106	95.4	82.8	97.8	68
Cn1cc(C2=C(c3cn(C4CCN(Cc5ccccn5)CC4)c4ccccc34)C(=O)NC2=O)c2ccccc21 [Enzastaurin] + COc1ccc(COc2ccc(Cc3cnc(N)nc3N)cc2OC)cc1 [GW2580] (first compound 0.8 µM, partner dose 1 µM)	174	220	107	340	97.9	58.3
C[C@]12O[C@H](C[C@]1(O)CO)n1c3ccccc3c3c4c(c5c6ccccc6n2c5c31)CNC4=O [Lestaurtinib] + COc1ccc(COc2ccc(Cc3cnc(N)nc3N)cc2OC)cc1 [GW2580] (first compound 0.004 µM, partner dose 1 µM)	167	52.7	96.4	87.3	90.1	129
C/C(O)=C(\C#N)C(=O)Nc1cc(Br)ccc1Br + Cn1cc(/C=C2\C(=O)Nc3cccnc32)c2ccccc21 [GW441756] (first compound 2 µM, partner dose 0.4 µM)	147	94.4	122	75.3	69.2	79.5
C/C(O)=C(\C#N)C(=O)Nc1cc(Br)ccc1Br + c1cc(-c2cnn3cc(-c4ccc(OCCN5CCCCC5)cc4)cnc23)ccn1 [Dorsomorphin] (first compound 2 µM, partner dose 0.4 µM)	86.7	146	109	76	65.1	151
C[C@]12O[C@H](C[C@]1(O)CO)n1c3ccccc3c3c4c(c5c6ccccc6n2c5c31)CNC4=O [Lestaurtinib] + C[C@]1(c2nc3c(C(N)=O)cccc3[nH]2)CCCN1 [Veliparib] (first compound 0.004 µM, partner dose 1.4 µM)	100	221	109	42.6	91	151
CC1(C)NC(=O)N(c2ccc([N+](=O)[O-])c(C(F)(F)F)c2)C1=O [nilutamide] + Cc1cc(SCc2sc(-c3ccc(C(F)(F)F)c(F)c3)nc2C)ccc1OCC(=O)O [GW0742] (first compound 1 µM, partner dose 2 µM)	93.7	92.8	108	76.8	82.8	37
C[As](C)SC[C@H](NC(=O)CC[C@H](N)C(=O)O)C(=O)NCC(=O)O [Darinaparsin] + O=C1NC(=O)/C(=C/c2ccc(-c3ccc(F)cc3O)o2)S1 [AS252424] (first compound 0.4 µM, partner dose 1 µM)	111	101	114	40.5	72.5	715
C[C@]12O[C@H](C[C@]1(O)CO)n1c3ccccc3c3c4c(c5c6ccccc6n2c5c31)CNC4=O [Lestaurtinib] + Cc1cc([N+](=O)[O-])ccc1NS(=O)(=O)c1cc(Cl)ccc1Cl [FH535] (first compound 0.004 µM, partner dose 1 µM)	96.2	204	115	81.6	87.2	92.4
Cn1cncc1[C@@](N)(c1ccc(Cl)cc1)c1ccc2c(c1)c(-c1cccc(Cl)c1)cc(=O)n2C [tipifarnib] + C/C(O)=C(\C#N)C(=O)Nc1cc(Br)ccc1Br [LFM-A13] (first compound 0.01 µM, partner dose 2 µM)	48.4	152	88.7	285	132	64.8
COCC[n+]1c2c(n(Cc3cnccn3)c1C)C(=O)c1ccccc1C2=O + O=C(Oc1ccc([N+](=O)[O-])cc1)N1CCC(C(O)(c2ccc3c(c2)OCO3)c2ccc3c(c2)OCO3)CC1 [JZL184] (first compound 0.0004 µM, partner dose 1 µM)	178	114	106	76.6	82.2	155

Single entries from the results shown:
In cleaved PARP positive nuclei fraction (WM3619) [%], COCC[n+]1c2c(n(Cc3cnccn3)c1C)C(=O)c1ccccc1C2=O + O=C(Oc1ccc([N+](=O)[O-])cc1)N1CCC(C(O)(c2ccc3c(c2)OCO3)c2ccc3c(c2)OCO3)CC1 [JZL184] (first compound 0.0004 µM, partner dose 1 µM) reads 82.2
In cleaved PARP positive nuclei fraction (WM451Lu) [%], Cn1cncc1[C@@](N)(c1ccc(Cl)cc1)c1ccc2c(c1)c(-c1cccc(Cl)c1)cc(=O)n2C [tipifarnib] + C/C(O)=C(\C#N)C(=O)Nc1cc(Br)ccc1Br [LFM-A13] (first compound 0.01 µM, partner dose 2 µM) reads 64.8
